This test relates to nude mice, LX-1 lung xenograft intrarenal, tumor weight T/C. In words: NCI In Vivo Anticancer Drug Screen. Data for tumor model Human Lung LX-1 Xenograft (intrarenal inoculation) in NU/NU Swiss (nude) mice. The following applies: T/C endpoint: mean tumor weight change, higher T/C = larger tumour; for T/C: evaluated on day 11. In a few lines: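 In vivo, transplantable tumor; compound vs vehicle arms; tumor size measured; value = T/C.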

Setting [1] is: dose: 75.0 mg/kg/injection, schedule: Q04DX003 (sc), vehicle: water.
[2] abbreviates: dose: 300.0 mg/kg/injection, schedule: Q04DX003 (sc), vehicle: saline.
Setting [3] is: dose: 600.0 mg/kg/injection, schedule: Q04DX003 (sc), vehicle: saline.
[4] abbreviates: dose: 300.0 mg/kg/injection, schedule: Q04DX003 (sc), vehicle: saline with Tween-80.
Setting [5] is: dose: 150.0 mg/kg/injection, schedule: Q04DX003 (sc), vehicle: water.
Setting [6] is: dose: 300.0 mg/kg/injection, schedule: Q04DX003 (sc), vehicle: water.
The mark [7] stands for this setting: dose: 50.0 mg/kg/injection, schedule: Q01DX010 (sc), vehicle: saline with Tween-80.
Setting [8] is: dose: 0.4 mg/kg/injection, schedule: Q01DX010 (sc), vehicle: saline.
Setting [9] is: dose: 0.8 mg/kg/injection, schedule: Q01DX010 (sc), vehicle: saline.

The results in this text go back to PubChem BioAssay AID264 (DTP/NCI, 2004).

The list shows only some results of the screen, not a fair sample: it gathers tests that were run many times, whatever their T/C, doses with no T/C, and many T/C values between a quarter and a half above the control. Further doses and runs are listed elsewhere. T/C: endpoint of the treated group in % of that of the vehicle group. Schedule codes are those of the source, read here as Q, the interval in days (D) or hours (H), X, the number of doses. Some T/C values carry the count of animals alive at the toxicity check (mostly the fifth day); where none is given, no animal had died by that day. Some T/C values are negative: the treated tumours shrank. Some entries were tested several times; the values are given in rising order. Some entries give survivors of the animals treated and no T/C: the source holds a T/C of zero for them, seemingly a mark for toxic or unscored doses. Counts of survivors are from the toxicity check (mostly the fifth day) where no day follows; animals may have died later. Peptide text beside a SMILES is read from it. * marks the point of attachment. Trt = c1ccc(C(c2ccccc2)(c2ccccc2)*)cc1; Cbz = O=C(OCc1ccccc1)*

`COc1cccc2c1C(=O)c1c(O)c3c(c(O)c1C2=O)CC(O)(/C(C)=N/NC(=O)CCCCC(=O)N/N=C(\C)C1(O)Cc2c(O)c4c(c(O)c2C(OC2CC(N)C(O)C(C)O2)C1)C(=O)c1c(OC)cccc1C4=O)CC3OC1CC(N)C(O)C(C)O1` (stereo not drawn): the T/C runs as follows: (dose: 25.0 mg/kg/injection, schedule: Q04DX003 (sc), vehicle: water) 38, 41, 71, 77 % of control; (dose: 50.0 mg/kg/injection, schedule: Q04DX003 (sc), vehicle: water) -61, 20, 33 [4 of 6 alive on day 11], 65 % of control. For the same compound, the survivor count was 3 of 6 on day 11 under setting [1]; 0 of 5 on day 11 and 0 of 6 on day 11 (dose: 100.0 mg/kg/injection, schedule: Q04DX003 (sc), vehicle: water); 0 of 6 on day 11 (dose: 200.0 mg/kg/injection, schedule: Q04DX003 (sc), vehicle: water).
Consider `O=c1[nH]cnc2[nH]ncc12`, for which, for the setting “dose: 1200.0 mg/kg/injection, schedule: Q04DX003 (sc), vehicle: suspension in saline”, the survivor count is reported as 3 of 6 on day 11.
`COC(=O)C(CSC(c1ccccc1)(c1ccccc1)c1ccccc1)NC(=O)C(CC(N)=O)NC(=O)OCc1ccccc1` (stereo not drawn) (Cbz-Asn-Cys(Trt)-OMe; configuration not given here): for the setting “dose: 600.0 mg/kg/injection, schedule: Q04DX003 (sc), vehicle: distilled water + Tween-80”, the T/C is 132 % of control.
In the case of `O=P(O)(NCCCl)NCCCl`, the survivor count under setting [2] was 0 of 3 on day 11 and the survivor count under setting [3] was 0 of 3 on day 11.
For `Nc1cccc(=O)[nH]1`, the survivor count (dose: 2400.0 mg/kg/injection, schedule: Q04DX003 (sc), vehicle: saline) is 1 of 6 on day 11.
On to `BrCC[Se]c1ccccc1`, for which, where the note is “dose: 400.0 mg/kg/injection, schedule: Q01DX010 (sc), vehicle: saline with Tween-80”, the T/C was 135 % of control [2 of 3 alive on day 11].
In the case of `CC(=O)OC(C)C1C2=C(C(=O)CC1(C)O)C(=O)c1c(ccc(-c3ccc4c(c3O)C(=O)C3=C(C4=O)C(C(C)OC(C)=O)C(C)(O)CC3=O)c1O)C2=O` (stereo not drawn), for the setting “dose: 60.0 mg/kg/injection, schedule: Q04DX003 (sc), vehicle: saline with Tween-80”, the survivor count is reported as 3 of 5 on day 11.
Turning to `C[CH2][Ge]1([CH2]C)[CH2]CC2(CCN(CCCN(C)C)C2)C[CH2]1`, the survivor count is 0 of 6 on day 11 under setting [2]; 0 of 6 on day 11 under setting [3]; 0 of 6 on day 11 (dose: 1200.0 mg/kg/injection, schedule: Q04DX003 (sc), vehicle: saline).
`CN(Cc1cnc2nc(N)nc(N)c2n1)c1c(Cl)cc(C(=O)NC(CCC(=O)O)C(=O)O)cc1Cl` (stereo not drawn): the survivor count (dose: 100.0 mg/kg/injection, schedule: Q01DX010 (sc), vehicle: Klucel (hydroxypropylcellulose) (HPC)) is on record as 0 of 3 on day 11.
Consider `Cc1cc2c(C(C)C)c(O)c(O)c(C=O)c2c(O)c1-c1c(C)cc2c(C(C)C)c(O)c(O)c(C=O)c2c1O`, for which the survivor count is, setting by setting: (dose: 150.0 mg/kg/injection, schedule: Q04DX003 (sc), vehicle: saline with Tween-80) 3 of 6 on day 11; under setting [4], 2 of 6 on day 11.
With `CCN(Cc1ccc(Cl)c(Cl)c1)c1ccc2nc(N)nc(N)c2c1C`, the survivor count runs as follows: under setting [1], 2 of 6 on day 11; under setting [5], 0 of 6 on day 11; under setting [6], 0 of 6 on day 11.
With `CC(=O)NCCCCCCNC(C)=O`, the survivor count (dose: 6400.0 mg/kg/injection, schedule: Q01DX010 (sc), vehicle: saline) is reported as 2 of 6 on day 11.
Take `C=CC(=O)N1CN(C(=O)C=C)CN(C(=O)C=C)C1`: the survivor count under setting [7] is listed as 0 of 3 on day 11.
For the compound `[N-]=[N+]=CC(=O)CCC(N)C(=O)O` (stereo not drawn), the survivor count by setting is: (dose: 0.2 mg/kg/injection, schedule: Q01DX010 (sc), vehicle: saline) 1 of 3 on day 11; under setting [8], 1 of 3 on day 11 and 3 of 6 on day 11; (dose: 0.75 mg/kg/injection, schedule: Q01DX010 (sc), vehicle: saline) 1 of 3 on day 11; under setting [9], 0 of 3 on day 11, 1 of 3 on day 11, 3 of 6 on day 11; (dose: 1.5 mg/kg/injection, schedule: Q01DX010 (sc), vehicle: saline) 0 of 3 on day 11; (dose: 1.6 mg/kg/injection, schedule: Q01DX010 (sc), vehicle: saline) 0 of 3 on day 11 and 0 of 6 on day 11. Also, the survivor count by setting is: (dose: 3.0 mg/kg/injection, schedule: Q01DX010 (sc), vehicle: saline) 0 of 3 on day 11; (dose: 3.2 mg/kg/injection, schedule: Q01DX010 (sc), vehicle: saline) 0 of 3 on day 11 and 0 of 6 on day 11; (dose: 6.0 mg/kg/injection, schedule: Q01DX010 (sc), vehicle: saline) 0 of 3 on day 11; (dose: 6.25 mg/kg/injection, schedule: Q01DX010 (sc), vehicle: saline) 0 of 3 on day 11; (dose: 6.4 mg/kg/injection, schedule: Q01DX010 (sc), vehicle: saline) 0 of 3 on day 11; (dose: 12.5 mg/kg/injection, schedule: Q01DX010 (sc), vehicle: saline) 0 of 3 on day 11. Besides, the survivor count reads like this: (dose: 25.0 mg/kg/injection, schedule: Q01DX010 (sc), vehicle: saline) 0 of 3 on day 11; (dose: 50.0 mg/kg/injection, schedule: Q01DX010 (sc), vehicle: saline) 0 of 2 on day 11 and 0 of 3 on day 11; (dose: 100.0 mg/kg/injection, schedule: Q01DX010 (sc), vehicle: saline) 0 of 3 on day 11. Besides, the T/C by setting is: under setting [8], 83 [2 of 3 alive on day 11] and 92 % of control; under setting [9], 40 % of control [2 of 3 alive on day 11].
Take `OC(CCl)CN1CC[N+]2(CC1)CC[N+]1(CCN(CC(O)CCl)CC1)CC2` (stereo not drawn): the survivor count by setting is: (dose: 512.0 mg/kg/injection, schedule: Q01DX010 (sc), vehicle: water) 1 of 3 on day 11; (dose: 1024.0 mg/kg/injection, schedule: Q01DX010 (sc), vehicle: water) 0 of 3 on day 11.
As for `COc1cccc2c1C(=N)c1c(O)c3c(c(O)c1C2=O)C[C@@](O)(C(C)=O)C[C@@H]3OC1CC(N)C(O)C(C)O1` (stereo partly drawn), under “dose: 192.0 mg/kg/injection, schedule: Q04DX003 (sc), vehicle: water”, the survivor count is on record as 0 of 3 on day 11.
Turning to `Cc1c2ccccc2cc2cccc[n+]12`, for the setting “dose: 30.0 mg/kg/injection, schedule: Q04DX003 (sc), vehicle: saline”, the T/C was 142 % of control. For the same compound, the survivor count is listed as 0 of 6 on day 11 (dose: 60.0 mg/kg/injection, schedule: Q04DX003 (sc), vehicle: saline); 0 of 6 on day 11 (dose: 120.0 mg/kg/injection, schedule: Q04DX003 (sc), vehicle: saline); 0 of 6 on day 11 (dose: 240.0 mg/kg/injection, schedule: Q04DX003 (sc), vehicle: saline).
For `COc1cc(C(=O)c2cocc2C(=O)c2ccc3c(c2)OCO3)cc(OC)c1OC`, the T/C (dose: 2400.0 mg/kg/injection, schedule: Q04DX003 (sc), vehicle: Klucel (hydroxypropylcellulose) (HPC)) is 129 % of control.
On to `Cc1ccccc1SSc1ccccc1C`, for which the T/C is 143 % of control under setting [7] and 143 % of control (dose: 100.0 mg/kg/injection, schedule: Q01DX010 (sc), vehicle: saline with Tween-80).
`O=S(=O)(c1ccccc1)N1CN2CCN(C2)C1`: the T/C under setting [4] is 134 % of control.
As to `Nc1n[n+](-c2ccccc2)no1`, the survivor count is recorded as 2 of 6 on day 11 under setting [5] and 0 of 6 on day 11 under setting [6].
